The term AC50 denotes the concentration at which the activity in the assay is half-maximal.

This is one part of the list. Further columns of the screen follow, without active or inactive calls. Most of these compounds were active or inconclusive in the main read-out, so they are no random draw. Potencies come from curve fits of mixed quality, noted in brackets.

Experimental findings from PubChem BioAssay AID493014 (National Center for Advancing Translational Sciences (NCATS), 2011) are described below.

The nature of this assay: qHTS Assay to Find Inhibitors of Chronic Active B-Cell Receptor Signaling. Particulars: ABC-DLBCL IkBa-CBG/CBR reporter, luminescence ratio (green luciferase fused to IkBa over red control in TMD8 lymphoma cells), 4 h. An outline of the steps: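 Doxycycline induced both beetle luciferases in TMD8 lymphoma cells; IKK-driven degradation limits the IkappaBalpha-fused green signal, while red luminescence normalises for cell number and nonspecific effects. Compounds tested up to 46 uM, 4 hrs.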
Background: In qHTS, concentration-response curves come from the screen itself.

The mark [1] stands for this setting: measured here: CBR red luminescence, cell number.
Setting [2] is: measured here: IkBa-CBG green luminescence.

For `COC(=O)c1ccccc1NC(=O)N[C@@H](C)C(=O)OC`, the AC50 under setting [1] is 0.92 µM [falling, full curve, poor fit].

For `O=C(Nc1ccncc1)Nc1ccc(F)cc1F`, the AC50 under setting [1] was 11.6 µM [falling, partial curve].

Turning to `O=C1C=C(NC2=CC3OC(c4ccccc4)OCC3OC2=O)CCC1` (stereo not drawn), the AC50 was 8.2 µM [falling, partial curve] under setting [1] and 2.59 µM [rising, full curve, poor fit] under setting [2].

As for `COc1ccccc1OCC(=O)Nc1ccccc1C(=O)NCc1cccnc1`, the AC50 under setting [1] is 0.1 µM [rising, full curve, poor fit].

For `Cc1ccc(S(=O)(=O)N(CC(=O)Nc2ccccc2)C(=O)N2CCN(C)CC2)cc1`, under setting [1], the AC50 was 4.11 µM [falling, partial curve, poor fit].

Consider `CC(=O)NC(CC(=O)NC1CCCCCC1)c1ccccc1` (stereo not drawn), for which the AC50 under setting [1] is 8.2 µM [rising, partial curve, poor fit].

Consider `CCCCC#Cc1cncc(C(=O)N/N=C/c2ccccc2)c1`, for which the AC50 under setting [1] was 17.8 µM [falling, partial curve, poor fit].

As for `CC1CC1C(=O)Nc1nc(-c2ccccc2)cs1` (stereo not drawn), the AC50 under setting [1] was 16.4 µM [falling, partial curve].

In the case of `CCOc1ccc(-c2nn(-c3ccccc3)cc2/C=C2\SC(=S)N(C3CCS(=O)(=O)C3)C2=O)cc1` (stereo not drawn), the half-maximal activity concentration (AC50) under setting [1] was 7.31 µM [falling, single point].

As for `Cc1nn(C)c(Cl)c1CN1CCN(CCC(C)C)C(CCO)C1` (stereo not drawn), the AC50 under setting [1] was 35.5 µM [falling, single point].

Regarding `COc1ccc(CCNC(=O)c2cccc(S(=O)(=O)N3CCOCC3)c2)cc1OC`, the concentration at half-maximal activity (AC50) under setting [1] was 18.4 µM [rising, partial curve].

Regarding `O=C(NC1CCCCC1)c1ccc(CS(=O)(=O)Cc2ccccc2F)o1`, under setting [1], the AC50 is 18.4 µM [rising, partial curve].

For the compound `O=C(O)c1ccc(N=c2oc3cc(O)ccc3cc2C(=O)NCc2ccccc2)cc1`, under setting [1], the half-maximal activity concentration (AC50) was 5.62 µM [falling, partial curve].

Consider `O=C(N/N=C/c1ccccc1O)C1SCCCS1`, for which the half-maximal activity concentration (AC50) under setting [1] was 35.5 µM [falling, single point].

As to `O=C(Nc1nnc(Cc2ccccc2)s1)c1cnccn1`, under setting [1], the AC50 was 0.794 µM [rising, full curve].

As to `Nc1ncc(-c2ccccc2)c(-c2ccc(OCc3ccccc3)cc2O)n1`, the AC50 under setting [1] was 11.2 µM [rising, single point].

`COC(=O)c1ccc(Cn2cc(/C=C\[N+](=O)[O-])c3ccccc32)o1`: the AC50 is 35.5 µM [rising, single point] under setting [1] and 35.5 µM [falling, single point] under setting [2].

For the compound `COC(=O)c1sccc1NC(=O)CSc1nnnn1-c1ccccc1C`, under setting [1], the concentration at half-maximal activity (AC50) is 0.00461 µM [falling, full curve, poor fit].

In the case of `CCOC(=O)c1sc(-c2ccc(C(F)(F)F)cc2)nc1O`, the AC50 under setting [1] was 7.94 µM [rising, partial curve].

With `NC(=O)CSc1nc(-c2ccccc2Cl)ns1`, the AC50 under setting [1] was 29.1 µM [rising, single point].

Consider `O=C(NC(=S)Nc1cccc(CO)c1)c1ccc(-c2ccccc2)cc1`, for which the concentration at half-maximal activity (AC50) under setting [1] is 23.1 µM [falling, partial curve, poor fit].

In the case of `COc1cc2c(cc1OC)C(c1cc(C)ccc1C)CC(=O)N2` (stereo not drawn), the concentration at half-maximal activity (AC50) under setting [2] is 12.6 µM [falling, partial curve, poor fit].

Take `CC1CCCN(C(=O)c2ccc3c(=O)n(C4CCCC4)c(=S)[nH]c3c2)C1` (stereo not drawn): the half-maximal activity concentration (AC50) under setting [1] is 35.5 µM [falling, single point].

With `CC1CN(C(=O)Nc2cccc(C(F)(F)F)c2)CC(C)O1` (stereo not drawn), the AC50 under setting [1] is 12.6 µM [rising, single point].

As for `Cc1cc(NC(=O)c2ccccc2Cl)no1`, the AC50 under setting [1] was 4.47 µM [falling, partial curve, poor fit].

Regarding `COc1ccc(C(=O)Nc2nc(C)c(C)s2)cc1OC`, the AC50 under setting [1] was 22.4 µM [falling, single point].

For `CC(C)(C)c1cc(-c2ccccc2)no1`, the AC50 under setting [1] was 2.82 µM [rising, full curve, poor fit].

As for `CC1CCCN(C(=O)CSCC(=O)Nc2nc(-c3cccs3)cs2)C1` (stereo not drawn), under setting [1], the AC50 is 9.2 µM [falling, partial curve, poor fit].

In the case of `O=C(CSc1ncnc2ccccc12)Nc1cccc(S(=O)(=O)N2CCCC2)c1`, the AC50 under setting [1] was 3.98 µM [falling, single point].

As for `CCOC(=O)Cc1nnc(NC(=O)C(CC)Sc2nc(C)cc(C)n2)s1` (stereo not drawn), under setting [1], the AC50 is 14.6 µM [rising, single point].

Consider `CSc1cc(-c2ccncc2)nc(-c2ccc(Cl)cc2)c1`, for which, under setting [1], the AC50 is 6.31 µM [rising, single point].

As to `CCOc1ccc(Br)cc1S(=O)(=O)Nc1ccc(Cl)c(S(=O)(=O)N(C)C)c1`, the AC50 under setting [1] was 6.51 µM [rising, partial curve, poor fit].

Consider `N/C(=N\OC(=O)c1cccc2ccccc12)c1ccccn1`, for which the AC50 under setting [1] was 7.94 µM [falling, partial curve, poor fit].

Take `CCOC(=O)c1c(-c2ccc3ccccc3c2)csc1NC(=O)CCCC(=O)O`: under setting [1], the AC50 was 7.31 µM [falling, partial curve].

With `CCn1cc(C(=O)O)c(=O)c2cnc(N3CCN(C(=S)NC(=O)c4ccccc4Cl)CC3)nc21`, the AC50 under setting [1] is 0.891 µM [rising, full curve, poor fit].

Take `S=c1nc(-c2ccccc2)[nH]c2ccc(Br)cc12`: under setting [1], the AC50 was 0.282 µM [rising, full curve, poor fit].

As to `CCCc1ccc(OCc2ccc(C(=O)NCc3cccnc3)o2)c(OC)c1`, under setting [1], the half-maximal activity concentration (AC50) is 7.08 µM [falling, full curve, poor fit].

Take `Cc1ccc(C(=O)Nc2ccccc2C(=O)NC(Cc2c[nH]c3ccccc23)C(=O)O)cc1` (stereo not drawn): under setting [1], the AC50 is 22.4 µM [falling, single point].

With `CC(C)C(=O)Nc1ccc(NC(=O)c2cc3ccccc3o2)cc1`, the AC50 under setting [1] was 11.6 µM [rising, partial curve].

In the case of `Cc1cc(OCC(=O)Nc2ccccc2C)no1`, the half-maximal activity concentration (AC50) under setting [1] was 29.1 µM [falling, single point].

With `S=C(Nc1ccc(N2CCOCC2)cc1)Nc1ccc2nc(-c3ccco3)c(-c3ccco3)nc2c1`, the AC50 under setting [1] was 29.1 µM [rising, single point].

Regarding `NC(N)=Nc1nc2ccc([N+](=O)[O-])cc2[nH]1`, the AC50 under setting [1] is 5.62 µM [rising, single point].

Take `COc1cc(C#Cc2c(-c3cncn3C)n(C)c3ccc(-c4cc(OC)c(OC)c(OC)c4)cc23)cc(OC)c1`: under setting [1], the AC50 is 18.4 µM [falling, single point].

Turning to `Oc1c(N=NC(=S)Nc2ccccc2F)c2ccccc2n1Cc1ccccc1F`, under setting [1], the AC50 was 14.1 µM [falling, partial curve, poor fit].

Turning to `COc1cc2c(C#Cc3cccnc3)c(-c3ccsc3)oc(=O)c2cc1OC`, under setting [1], the AC50 was 1.64 µM [rising, partial curve, poor fit].

As for `Cc1ccc(N=Nc2c(N)nn3c(C)cc(C)nc23)cc1`, the concentration at half-maximal activity (AC50) under setting [1] is 29.1 µM [rising, single point].

On to `N#C/C(=C\c1ccc(N2CCOCC2)o1)C(=O)Nc1ccc(O)cc1`, for which the AC50 under setting [1] is 0.891 µM [falling, full curve].

Consider `C=CCNC(=S)N/N=C/c1ccc(C(C)(C)C)cc1`, for which the AC50 under setting [2] was 10 µM [falling, partial curve].

Take `Cc1cccc(OCc2nc3ccccc3n2C)c1`: the AC50 under setting [1] was 2.82 µM [rising, partial curve, poor fit].

On to `COC(=O)CC1=NN(c2nc3ccccc3s2)C(=O)/C1=C/N(C)C`, for which, under setting [1], the AC50 is 1.78 µM [falling, partial curve].

For `CCNC(=S)Nc1cccc(NC(=O)c2ccccc2O)c1`, the AC50 under setting [1] was 35.5 µM [falling, single point].

`CCCCSCc1cc(C(=O)O)oc1C(C)(C)C`: the AC50 under setting [1] was 15.8 µM [rising, single point].

In the case of `N#Cc1c(NCCCO)nc(NCc2ccccc2)c2c1CCN(Cc1ccccc1)C2`, the AC50 under setting [1] is 6.31 µM [rising, single point].

For the compound `O=C(Nc1ccc(-c2nc3ccccc3[nH]2)cc1)c1c(F)c(F)c(F)c(F)c1F`, the AC50 under setting [1] is 15.8 µM [falling, single point].

With `CC1CCN(c2nc(/C=C/c3ccccc3)nc3ccccc23)CC1`, the AC50 under setting [1] is 20.6 µM [rising, partial curve, poor fit].

`Cc1ccc(O)c(-c2cc(C(F)(F)F)[nH]n2)c1`: under setting [1], the AC50 was 20 µM [rising, single point].

For the compound `O=C(c1ccccn1)C1CCCN(Cc2cn[nH]c2-c2cc3ccccc3o2)C1` (stereo not drawn), the AC50 under setting [1] was 15.8 µM [falling, partial curve, poor fit].

As to `Cc1cc(Nc2sc(C(=O)c3ccc(F)cc3)c(N)c2C(=O)Nc2ccc(F)cc2)ccc1Cl`, the AC50 under setting [1] is 35.5 µM [falling, single point].

In the case of `CCOC(=O)c1c(NC(=O)CNCCOC)sc2c1CCCC2`, under setting [1], the AC50 was 6.51 µM [rising, single point].

`NC(=O)c1ccccc1NC(=O)NC1CCCCC1`: the AC50 under setting [1] was 29.1 µM [falling, single point].

On to `CCOC(=O)C1CCN(C(=O)c2cc3cc4cc(OC)ccc4nc3o2)CC1`, for which the concentration at half-maximal activity (AC50) under setting [1] is 0.731 µM [falling, full curve].

Turning to `COc1ccc(NC(=O)C2(c3cccs3)CCOCC2)cc1Cl`, the AC50 under setting [1] was 35.5 µM [rising, single point].

With `COc1ccc(N2CCOCC2)c(NC(=O)c2cc3ccccc3o2)c1`, the half-maximal activity concentration (AC50) under setting [1] was 3.55 µM [falling, partial curve, poor fit].

For the compound `COc1ccc(S(=O)(=O)NC(CC(=O)NCCc2ccccc2)c2ccco2)cc1` (stereo not drawn), the AC50 under setting [1] was 29.1 µM [falling, single point].

As for `CNc1ccc(/C=C(\CCC(=O)O)c2nc3ccccc3s2)cc1[N+](=O)[O-]`, the AC50 under setting [1] is 20.6 µM [rising, single point] and the half-maximal activity concentration (AC50) under setting [2] is 20.6 µM [falling, partial curve, poor fit].
